For at least one compound, name, drawing or mass did not settle the structure.
Test system: 129/SV Wildtyp Mäuse
Assay: Sucrose consumption test after MCAo/reperfusion
Format: in vivo
Details: Citalopram 13 mg/kg i.p. daily from day 7 after 30 min left MCAo; many weeks after MCAo; vs sham; Figur 1

SMILES: CN(C)CCCC1(c2ccc(F)cc2)OCc2cc(C#N)ccc21 (stereo not shown) [Citalopram, 1-[3-(Dimethylamino)propyl]-1-(4-fluorphenyl)-1,3-dihydroisobenzofuran-5-carbonitril]
- Sucrose consumption (gesüßtes Wasser), anhedone Phänotyp: vollständig verhindert
